Assay results as given in publication PMC10816715.
Results are given in words; binding and its absence hold for the method and conditions named. In cells and extracts the contact can be indirect.

By UniProt entry, the sequences of proteins in these tests, tags left out.
UniProt P23475: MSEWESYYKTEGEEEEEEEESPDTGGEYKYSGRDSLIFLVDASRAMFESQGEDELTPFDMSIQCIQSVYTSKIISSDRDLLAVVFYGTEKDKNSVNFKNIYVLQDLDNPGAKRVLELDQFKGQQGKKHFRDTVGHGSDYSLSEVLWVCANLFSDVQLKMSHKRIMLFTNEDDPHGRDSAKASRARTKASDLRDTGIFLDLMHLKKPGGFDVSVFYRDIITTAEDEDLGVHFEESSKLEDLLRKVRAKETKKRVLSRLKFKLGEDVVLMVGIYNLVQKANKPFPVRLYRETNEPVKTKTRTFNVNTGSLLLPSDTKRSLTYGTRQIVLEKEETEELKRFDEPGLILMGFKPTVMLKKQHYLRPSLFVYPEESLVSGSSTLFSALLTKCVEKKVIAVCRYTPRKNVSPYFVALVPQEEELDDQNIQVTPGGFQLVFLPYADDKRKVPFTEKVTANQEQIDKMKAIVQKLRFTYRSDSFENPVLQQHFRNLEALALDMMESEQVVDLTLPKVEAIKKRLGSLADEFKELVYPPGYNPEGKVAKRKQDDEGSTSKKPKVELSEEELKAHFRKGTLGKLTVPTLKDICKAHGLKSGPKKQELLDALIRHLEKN

Target: Ku70 (mouse (endogenous in colon tissue)) (UniProt P23475)
Experiment: co-IP; endogenous proteins from the colon tissue lysate of WT mice at day 14 of AOM-DSS treatment; IP with antibody to Ku70, pan-Ras, Rab5 or Rab7 (IgG control), Protein A/G PLUS-Agarose, immunoblot; lysis buffer 50 mM tris-HCl pH 7.5, 150 mM NaCl, 1% NP-40, 1% glycerol

B1: GM-130 (protein, UniProt Q921M4 1-999)
chain: MWPPRFPPPRPGMSEETRQSKLAAAKKKLREYQQKNSPGVPAGAKKKKKIKNGHSPERPTASDCQSPENVPTDHIAPAPPTAATDTMFLGVTPSPDADLTQSHDAGNCSNLMEETKTFSSTESLRQLSQQLNGLVSESTSYINGEGLTSSNMKELENRYQELAVALDSSYVTNKQLSSTIEELKQQNQDTLDQLEKEKKDYQQKLAKEQGSLREQLQVHIQTIGILVSEKAELQTALAHTQQAARQKAGESEDLASRLQSSRQRVGELERTLSTVSTQQKQADRYNKDLTKERDALKLELYKNSKSNEDLRQQNSELEEKLRVLVAEKAAAQLGVEELQKKLEMSELLLQQFSSQSSAAGGNEQLQHAMEERAQLETHVSQLMESLKQLQVERDQYAENLKGESAMWQQRVQQMAEQVHTLKEEKEHRERQVQELETSLAALRSQMEEPPPPEPPAGPSEAEEQLQGEVEQLHKELERLTGQLRAQVQDNESLSHLNREQEGRLLELEREAQRWSEQAEERKQILESMQSDRTTISRALSQNRELKEQLAELQNGFVRLTNENMEITSALQSEQHVKKELARKLGELQERLGELKETVELKSQEAQGLQEQRDQCLSHLQQYAAAYQQHLAAYEQLTSEKEAIHKQLLLQTQLMDQLQHEEVQGKMAAELARQELQEAQERLKATSQENQQLQAQLSLLVLPGEGDVDQEEEDEEVPQSSLAIPEDLDSREAMVAFFNAAIARAEEEQARLRVQLKEQKARCRSLSHLAAPVQSKLEKEAVVPRNVDDSASEESNQALHVAMEKLQSRFLEVMQEKVELKERVEELEHCCIQLSGETDTIGEYIALYQNQRAVLKARHLEKEEYISRLAQDKEEMKVKLLELQELVLRLVNERNEWQGKFLAVSQNPGDVLTPVPTGSQEFGAADQQDDLREVSLADDIEPAQGEAGVPAPHENPTAQQIMQLLREIQNPRERPGLGSNPCIPFFYRADENDEVKIMVV
B1 was tested, and the binding was “no binding”.
